Laboratory results reported in article PMC1933423.
No constants are given. Whether binding was seen depends on the method and setting. For some assays here: A result given as binding can be weak or reduced; the word gives no strength. For some assays here: Sequences can lack the tags named with a protein.

Legend:
[1] = target: T1, N-terminus of chick Hairy1 (bHLH-OR, amino acids 1-163) (chick (Gallus gallus)) (UniProt O57337); assay: two-hybrid; confirmation by mating: baits (Gal4 DNA-BD, pGBKT7) in Y187, preys (Gal4 AD, pGADT7) in AH109; growth of 20-fold serial dilutions on SD-Leu/-Trp/-His/-Ade/X-alpha-gal medium
T1 sequence: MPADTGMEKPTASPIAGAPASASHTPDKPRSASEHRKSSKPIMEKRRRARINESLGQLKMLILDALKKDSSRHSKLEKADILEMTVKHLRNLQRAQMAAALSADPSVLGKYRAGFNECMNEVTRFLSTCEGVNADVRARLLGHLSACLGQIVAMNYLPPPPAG

[2] = target: T2, C-terminal portion of the chick Hairy1 protein (C-Term, amino acids 150-291) (chick (Gallus gallus)) (UniProt O57337); assay: as above
T2 sequence: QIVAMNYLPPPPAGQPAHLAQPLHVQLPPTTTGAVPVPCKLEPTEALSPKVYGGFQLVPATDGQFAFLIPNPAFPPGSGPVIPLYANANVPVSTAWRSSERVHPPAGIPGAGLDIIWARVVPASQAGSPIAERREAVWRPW

[3] = target: T3, chick Hairy1 protein, whole (two-hybrid fusion) (chick (Gallus gallus)) (UniProt O57337); assay: as above
T3 sequence: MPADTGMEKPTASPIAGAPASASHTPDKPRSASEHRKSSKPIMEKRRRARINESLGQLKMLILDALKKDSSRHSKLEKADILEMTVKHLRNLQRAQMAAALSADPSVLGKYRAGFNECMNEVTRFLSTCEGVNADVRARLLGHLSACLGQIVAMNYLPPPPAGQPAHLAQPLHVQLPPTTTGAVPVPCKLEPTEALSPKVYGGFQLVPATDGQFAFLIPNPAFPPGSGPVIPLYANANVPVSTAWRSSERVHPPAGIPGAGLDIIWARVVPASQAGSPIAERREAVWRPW

[4] = target: T2, C-terminal portion of the chick Hairy1 protein (C-Term, amino acids 150-291) (chick (Gallus gallus)); assay: two-hybrid; quantification of reporter beta-galactosidase activity in liquid culture, normalised to the Hairy1/Hairy1 interaction
[5] = target: T3, chick Hairy1 protein, whole (two-hybrid fusion) (chick (Gallus gallus)); assay: as above

- binding [1]: no binding
- binding [2]: binds
- binding [3]: binds
- binding [4]: binds
- binding [5]: binds
Substance: chick Sap18 (prey of the confirmatory two-hybrid assays)
